PubChem BioAssay AID504793 – Drosophila RNAi Screening Center | 2011

Assay: 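Genes required for cells to halt at G2/M after double-strand DNA breaks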 (primary screen)
Cell system: Drosophila S2R+ cells
Knock-down reagent: long dsRNA against Drosophila genes, about 0.25 µg dsRNA per well
Timing: 4 days of dsRNA, then 4 hours of drug before read-out
Challenge: doxorubicin 0.5 µM for 4 hours to cause double-strand breaks, in cells also given a low, harmless dose of dsRNA against nbs to sensitise the assay
Measurement: 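Per-well count of mitotic cells stained for phospho-histone H3 after doxorubicin exposure, used as mitotic index; counts are raw and not normalised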
Direction: mitotic cells: higher = more cells in mitosis, weaker G2 arrest
Call rule: 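Genes are called active only when high mitotic counts were reproduced with independent dsRNAs and mitosis was checked for delay without damage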
Meaning of the calls: active = confirmed in follow-up tests; inactive = not confirmed
The screen tested about 23,000 reagents; below is a random part of those that have a named target and a result. In the full data, 62 (0.27%) got an active call. 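Calls come from follow-up tests whose scores are not deposited, so confirmed genes may have low counts here; counts are not normalised per plate.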 Raw values are not corrected between plates. A number with no mark means an inactive call. Names joined by + are all predicted targets of the reagent.

Depletion of Grl36a [DRSC21748] resulted in: mitotic cells, replicate 1 = 10. Knock-down of CG15024 [DRSC08478] gave: mitotic cells, replicate 1 = 4. Depletion of CG8312 [DRSC16406] gave: mitotic cells, replicate 1 = 6. For laza [DRSC11661], the values are mitotic cells, replicate 1 = 5. laza [DRSC23330] gave mitotic cells, replicate 1 = 9. With knock-down of laza [DRSC29129], the record shows mitotic cells, replicate 1 = 2.

CG32628 (retired record) [DRSC19405] showed mitotic cells, replicate 1 = 6. With knock-down of CG31926 [DRSC00295] the results were mitotic cells, replicate 1 = 6. CG31926 [DRSC29022] scored mitotic cells, replicate 1 = 7. With knock-down of Spn53F [DRSC06022], the screen gave mitotic cells, replicate 1 = 2. For CG11699 [DRSC19419], the entry reads mitotic cells, replicate 1 = 12. CG11699 [DRSC27489] showed mitotic cells, replicate 1 = 1.

CG32576 + UQCR-14 [DRSC19870] showed mitotic cells, replicate 1 = 11. Knock-down of mim [DRSC23045] gave: mitotic cells, replicate 1 = 8. With knock-down of mim [DRSC27684], the screen gave mitotic cells, replicate 1 = 2. After knock-down of RpS9 [DRSC11273], the screen gave mitotic cells, replicate 1 = 6. mRpS33 [DRSC14239] scored mitotic cells, replicate 1 = 8. Depletion of CtsL4 [DRSC02849] resulted in: mitotic cells, replicate 1 = 5.

Silencing of TotC [DRSC13449] resulted in: mitotic cells, replicate 1 = 8. Depletion of Kdm4B [DRSC06862] resulted in: mitotic cells, replicate 1 = 10. For Kdm4B [DRSC26702], the values are mitotic cells, replicate 1 = 3. Depletion of gem [DRSC06093] gave: mitotic cells, replicate 1 = 6. For gem [DRSC06847], the entry reads mitotic cells, replicate 1 = 11. Depletion of CG30393 [DRSC04253] came out at: mitotic cells, replicate 1 = 7.

Against CG30393 [DRSC24833], the values are mitotic cells, replicate 1 = 3. With knock-down of Prx6a [DRSC00565] the results were mitotic cells, replicate 1 = 5. Depletion of CG33309 [DRSC01421] gave: mitotic cells, replicate 1 = 10. Hug [DRSC16969] showed mitotic cells, replicate 1 = 9. Knock-down of Hug [DRSC29749] came out at: mitotic cells, replicate 1 = 7. After knock-down of CG31231 [DRSC13308], the record shows mitotic cells, replicate 1 = 10.

With knock-down of CG31231 [DRSC28440], the screen gave mitotic cells, replicate 1 = 1. For Rbpn-5 [DRSC04440], the values are mitotic cells, replicate 1 = 3. Rbpn-5 [DRSC26142] showed mitotic cells, replicate 1 = 6. After knock-down of CG7611 [DRSC11840] the results were mitotic cells, replicate 1 = 9.

5 entries from above, arranged by “mitotic cells, replicate 1”, low to high.
Kdm4B [DRSC26702]: mitotic cells, replicate 1 = 3
gem [DRSC06093]: mitotic cells, replicate 1 = 6
TotC [DRSC13449]: mitotic cells, replicate 1 = 8
Kdm4B [DRSC06862]: mitotic cells, replicate 1 = 10
gem [DRSC06847]: mitotic cells, replicate 1 = 11
